Results deposited as PubChem BioAssay AID1159584 (Peter MacCallum Cancer Centre, 2016)

Assay: 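Knock-downs that harm CDH1-null cells more than parental MCF10A cells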 (primary screen)
Cell system: human MCF10A breast epithelial cells, parental and CDH1-null
Reagent: siRNA against human genes
Measurement: 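Cell viability by CellTiter-Glo ATP luminescence, each line scaled to the mean of mock wells across plates, then CDH1-null over parental ratio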
Reading the numbers: CDH1-null / parental viability ratio: higher = CDH1-null cells survive relatively better than parental
Shown is a random part of about 18,000 reagents. Reagents against one gene are numbered here. Not all columns of the deposit are shown. The record does not give: the amount of reagent, the time to read-out.

With knock-down of TRPT1 (tRNA phosphotransferase 1) the results were CDH1-null / parental viability ratio 1.35.
Depletion of CIAO2A (cytosolic iron-sulfur assembly component 2A) came out at: CDH1-null / parental viability ratio 1.03.
For TXNRD1 (thioredoxin reductase 1), the values are CDH1-null / parental viability ratio 0.97.
AGFG1 (ArfGAP with FG repeats 1) scored CDH1-null / parental viability ratio 1.19.
KLF15 (KLF transcription factor 15) scored CDH1-null / parental viability ratio 0.97.
Silencing of ANKRD6 (ankyrin repeat domain 6) resulted in: CDH1-null / parental viability ratio 0.8.
Knock-down of CLCN3 (Cl-/H+ antiporter 3) resulted in: CDH1-null / parental viability ratio 1.1.
Depletion of KLF2 (KLF transcription factor 2) resulted in: CDH1-null / parental viability ratio 0.96.
For PRSS53 (serine protease 53), the values are CDH1-null / parental viability ratio 0.81.
Depletion of GYPA (glycophorin A (MNS blood group)) gave: CDH1-null / parental viability ratio 1.07.
For SACK1D (scaffolding CK1 anchoring protein D) the deposit lists CDH1-null / parental viability ratio 0.94.
Silencing of PLXNB3 (plexin B3) resulted in: CDH1-null / parental viability ratio 1.19.
LRRC14 (leucine rich repeat containing 14) showed CDH1-null / parental viability ratio 1.07.
Depletion of PROK1 (prokineticin 1) resulted in: CDH1-null / parental viability ratio 0.83.
SLC8B1 gave CDH1-null / parental viability ratio 1.19.
OTOP2 (otopetrin 2) gave CDH1-null / parental viability ratio 0.86.
Against OR5B3 (olfactory receptor family 5 subfamily B member 3), the values are CDH1-null / parental viability ratio 1.19.
Against CNN3 (calponin 3) the deposit lists CDH1-null / parental viability ratio 1.12.
Silencing of TRIM64C (tripartite motif containing 64C) #1 resulted in: CDH1-null / parental viability ratio 0.97.
For TRIM64C (tripartite motif containing 64C) #2, the values are CDH1-null / parental viability ratio 1.06.
DPH3 (diphthamide biosynthesis 3) gave CDH1-null / parental viability ratio 0.8.
Against SHFL (shiftless antiviral inhibitor of ribosomal frameshifting), the entry reads CDH1-null / parental viability ratio 1.17.
After knock-down of EVPL (envoplakin), the record shows CDH1-null / parental viability ratio 1.05.
Against ATP2A1, the entry reads CDH1-null / parental viability ratio 0.93.
Against PAQR9 (progestin and adipoQ receptor family member 9), the values are CDH1-null / parental viability ratio 0.75.
For PMP22 (peripheral myelin protein 22), the entry reads CDH1-null / parental viability ratio 0.98.
Silencing of DHX35 (DEAH-box helicase 35) gave: CDH1-null / parental viability ratio 1.24.
After knock-down of OR2T29 (olfactory receptor family 2 subfamily T member 29), the screen gave CDH1-null / parental viability ratio 1.03.
MMP24 (matrix metallopeptidase 24) scored CDH1-null / parental viability ratio 1.2.
Against DNAAF2 (dynein axonemal assembly factor 2), the entry reads CDH1-null / parental viability ratio 0.91.
After knock-down of PRRG3 (proline rich and Gla domain 3) the results were CDH1-null / parental viability ratio 1.14.
For IL37 (interleukin 37), the entry reads CDH1-null / parental viability ratio 1.01.
Silencing of PLEKHM1P1 gave: CDH1-null / parental viability ratio 1.03.
Against SLC6A4 the deposit lists CDH1-null / parental viability ratio 1.01.
For ATF1 (activating transcription factor 1), the values are CDH1-null / parental viability ratio 1.
